Measurements from patent US9757350B2, “Small molecule inhibitors of replication protein A that also act synergistically with cisplatin” (Indiana University Research and Technology Corp., priority 2010, dated 2017).
At least one structure is not confirmed: it was looked up by name or label, or the drawing left a doubt.

Sequences of proteins named here, by UniProt entry; tags and fusion partners are left off.
UniProt P27694, whole entry: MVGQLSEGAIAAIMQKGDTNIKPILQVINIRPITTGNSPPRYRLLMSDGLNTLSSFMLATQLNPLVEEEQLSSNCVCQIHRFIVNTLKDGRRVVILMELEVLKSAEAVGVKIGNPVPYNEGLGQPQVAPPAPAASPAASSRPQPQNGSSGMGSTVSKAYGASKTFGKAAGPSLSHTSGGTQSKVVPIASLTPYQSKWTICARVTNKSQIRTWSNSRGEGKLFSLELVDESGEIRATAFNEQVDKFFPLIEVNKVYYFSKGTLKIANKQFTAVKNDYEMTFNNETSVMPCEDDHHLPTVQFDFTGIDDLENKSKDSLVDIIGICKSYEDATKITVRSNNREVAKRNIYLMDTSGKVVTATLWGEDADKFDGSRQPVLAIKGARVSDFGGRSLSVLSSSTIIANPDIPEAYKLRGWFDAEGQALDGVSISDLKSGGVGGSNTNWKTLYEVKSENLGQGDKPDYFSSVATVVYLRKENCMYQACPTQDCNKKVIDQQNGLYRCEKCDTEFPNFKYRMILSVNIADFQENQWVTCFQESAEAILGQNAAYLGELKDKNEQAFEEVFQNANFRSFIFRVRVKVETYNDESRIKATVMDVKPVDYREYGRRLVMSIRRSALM

Tests used:
[1] = target: T1, full-length heterotrimeric RPA (Homo sapiens, UniProt P27694); test: EMSA in vitro DNA binding assay, full-length heterotrimeric RPA; set-up: key to the marks not given beside the values; settings: electrophoretic mobility shift in vitro DNA binding assay
T1 construct: Human full-length, un-tagged heterotrimeric RPA (RPA) was purified as previously describe; made in house
Experimental: RPA. Human full-length, un-tagged heterotrimeric RPA (RPA) was purified as previously describe.
RPA and DBD-A/B Binding. EMSAs were performed as previously described (22) using a 30-base purine rich ssDNA substrate (3Pc3). Briefly, reactions contained 12.5 nM 5′-[^32P]-labeled 3Pc3 ssDNA and the indicated concentrations of RPA or DBD-A/B. Protein was pre-incubated with the indicated concentration of SMI for 30 minutes at 37° C. DNA was then added and reactions incubated for an additional 5 minutes at room temperature in a final reaction volume of 40 μL. Reactions were then resolved on a 6% native polyacrylamide gel and electrophoresed at 170 volts for 1 hour. Gels were dried and quantified via phosphorimager analysis and ImageQuant software (Molecular Dynamics).

A549 cells = test: Crystal violet cell viability assay, A549; type: cell-based; settings: 48 hours after exposing the cells
Experimental: (§1) Referring now to FIG. 11A. Gel showing effect of MCI13E on DNA-RPA binding. […] Cytotoxicity was analyzed via crystal violet analysis as described in “methods” 48 hours following MCI13E treatment. Data represent the average and standard deviation of four replicate experiments with each replicate containing triplicate determinations and the circles represent data from H460 cells and squares A549 cells. Referring now to FIG. 11C. Graph of MCI13E induced death via apoptosis in NSCLC cell lines. Cell were treated with the indicated concentrations of MCI13E for 48 hours and analyzed for the induction of apoptosis via Annexin V/PI staining Referring now to FIG. 11D. Graph of cell survival as a function of [MCI1EC]. Percent survival was calculated for each cell line using untreated cells as a control. Data presented are the average and standard deviation from four replicate experiments. […]
(§2) Cell Viability Assays—A crystal violet cell viability assay was performed to determine cytotoxicity of SMI. […] Stained cells were resuspended in 500 μl DMSO containing 1% SDS and absorbance was measured at 590 nm in a SpectraMax M5 plate reader (Molecular Devices, Sunnyvale, Calif.) and analyzed using SoftMax Pro 5.2. Percent viability is taken as an absorbance percentage against control untreated cells. […]

H460 cells = test: Crystal violet cell viability assay, H460; type: cell-based; settings: 48 hours after exposing the cells
Experimental: as §1, §2

Row | SMILES | Relative Inhibitory Activity [1] | IC50 (A549 cells) [µM] | IC50 (H460 cells) [µM]
1 | CC1(C)C2CCC1(C)C(OC(=O)CBr)C2 (racemic) [MCI13E, (+/−)-Isobornyl bromoacetate] | +++ | 5 | 5
2 | CC1(C)C2CCC1(C)C(OC(=O)CI)C2 (racemic) [MCI13F, (+/−)-Isobornyl iodoacetate] | +++ | 5 | 
